Experimental data published in PMC4847768.
These are yes or no findings as the source states them, for the method shown. Binding seen in cells or lysates may run through a third protein. These calls come from enrichment with a bait or labelling near it, and not all partners need be listed. Where a sequence is shown, tags or fusion partners need not be part of it.

By UniProt entry, the sequences of proteins in these tests, tags left out. Residues count along the entry.
UniProt O88207, residues 37-1838: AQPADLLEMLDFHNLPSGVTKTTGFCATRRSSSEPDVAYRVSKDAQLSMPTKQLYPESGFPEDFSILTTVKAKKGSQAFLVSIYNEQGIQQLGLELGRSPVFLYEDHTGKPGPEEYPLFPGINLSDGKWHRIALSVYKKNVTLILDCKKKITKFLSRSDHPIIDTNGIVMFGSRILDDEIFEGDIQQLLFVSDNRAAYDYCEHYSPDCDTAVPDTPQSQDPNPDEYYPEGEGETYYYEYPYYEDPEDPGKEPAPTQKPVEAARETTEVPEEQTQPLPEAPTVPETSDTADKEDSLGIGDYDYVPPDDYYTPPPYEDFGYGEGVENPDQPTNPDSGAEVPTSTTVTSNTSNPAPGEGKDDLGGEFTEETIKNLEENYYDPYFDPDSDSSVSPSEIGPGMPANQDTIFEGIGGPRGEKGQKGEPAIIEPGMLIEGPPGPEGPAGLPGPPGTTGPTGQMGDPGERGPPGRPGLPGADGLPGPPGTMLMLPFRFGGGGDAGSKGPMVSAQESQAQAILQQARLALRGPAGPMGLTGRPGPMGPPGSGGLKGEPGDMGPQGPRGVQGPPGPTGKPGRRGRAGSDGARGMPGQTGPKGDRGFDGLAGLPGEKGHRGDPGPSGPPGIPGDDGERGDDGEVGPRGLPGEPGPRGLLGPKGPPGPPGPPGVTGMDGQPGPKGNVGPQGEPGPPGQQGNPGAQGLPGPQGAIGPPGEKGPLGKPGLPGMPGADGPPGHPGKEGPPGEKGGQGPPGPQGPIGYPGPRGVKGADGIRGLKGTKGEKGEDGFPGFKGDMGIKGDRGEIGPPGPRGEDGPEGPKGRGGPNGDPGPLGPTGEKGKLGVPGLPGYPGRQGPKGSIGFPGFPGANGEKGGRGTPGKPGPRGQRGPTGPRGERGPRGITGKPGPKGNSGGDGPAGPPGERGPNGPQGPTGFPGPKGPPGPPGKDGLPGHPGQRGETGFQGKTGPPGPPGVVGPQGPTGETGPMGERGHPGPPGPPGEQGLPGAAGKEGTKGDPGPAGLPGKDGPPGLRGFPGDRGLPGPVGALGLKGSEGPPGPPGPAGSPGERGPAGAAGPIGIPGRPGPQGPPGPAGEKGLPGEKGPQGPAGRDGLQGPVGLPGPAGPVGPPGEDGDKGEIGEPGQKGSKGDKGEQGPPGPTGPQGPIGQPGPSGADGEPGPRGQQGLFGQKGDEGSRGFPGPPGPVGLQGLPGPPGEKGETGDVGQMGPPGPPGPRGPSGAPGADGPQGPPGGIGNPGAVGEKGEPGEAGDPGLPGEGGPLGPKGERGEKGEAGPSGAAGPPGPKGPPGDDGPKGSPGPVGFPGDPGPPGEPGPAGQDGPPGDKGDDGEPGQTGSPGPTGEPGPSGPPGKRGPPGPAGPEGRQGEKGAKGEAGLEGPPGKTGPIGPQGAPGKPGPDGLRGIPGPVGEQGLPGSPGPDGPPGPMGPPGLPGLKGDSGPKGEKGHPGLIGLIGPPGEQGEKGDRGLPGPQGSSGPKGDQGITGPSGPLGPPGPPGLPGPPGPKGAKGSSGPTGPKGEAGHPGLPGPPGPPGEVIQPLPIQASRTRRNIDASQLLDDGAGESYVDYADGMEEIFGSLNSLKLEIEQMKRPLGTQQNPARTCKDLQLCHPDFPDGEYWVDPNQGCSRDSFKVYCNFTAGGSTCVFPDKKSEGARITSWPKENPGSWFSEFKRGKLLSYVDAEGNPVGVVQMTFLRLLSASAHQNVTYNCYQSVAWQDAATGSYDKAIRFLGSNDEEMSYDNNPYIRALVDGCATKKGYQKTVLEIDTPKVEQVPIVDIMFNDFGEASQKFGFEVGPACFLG
UniProt Q01149, residues 86-1125: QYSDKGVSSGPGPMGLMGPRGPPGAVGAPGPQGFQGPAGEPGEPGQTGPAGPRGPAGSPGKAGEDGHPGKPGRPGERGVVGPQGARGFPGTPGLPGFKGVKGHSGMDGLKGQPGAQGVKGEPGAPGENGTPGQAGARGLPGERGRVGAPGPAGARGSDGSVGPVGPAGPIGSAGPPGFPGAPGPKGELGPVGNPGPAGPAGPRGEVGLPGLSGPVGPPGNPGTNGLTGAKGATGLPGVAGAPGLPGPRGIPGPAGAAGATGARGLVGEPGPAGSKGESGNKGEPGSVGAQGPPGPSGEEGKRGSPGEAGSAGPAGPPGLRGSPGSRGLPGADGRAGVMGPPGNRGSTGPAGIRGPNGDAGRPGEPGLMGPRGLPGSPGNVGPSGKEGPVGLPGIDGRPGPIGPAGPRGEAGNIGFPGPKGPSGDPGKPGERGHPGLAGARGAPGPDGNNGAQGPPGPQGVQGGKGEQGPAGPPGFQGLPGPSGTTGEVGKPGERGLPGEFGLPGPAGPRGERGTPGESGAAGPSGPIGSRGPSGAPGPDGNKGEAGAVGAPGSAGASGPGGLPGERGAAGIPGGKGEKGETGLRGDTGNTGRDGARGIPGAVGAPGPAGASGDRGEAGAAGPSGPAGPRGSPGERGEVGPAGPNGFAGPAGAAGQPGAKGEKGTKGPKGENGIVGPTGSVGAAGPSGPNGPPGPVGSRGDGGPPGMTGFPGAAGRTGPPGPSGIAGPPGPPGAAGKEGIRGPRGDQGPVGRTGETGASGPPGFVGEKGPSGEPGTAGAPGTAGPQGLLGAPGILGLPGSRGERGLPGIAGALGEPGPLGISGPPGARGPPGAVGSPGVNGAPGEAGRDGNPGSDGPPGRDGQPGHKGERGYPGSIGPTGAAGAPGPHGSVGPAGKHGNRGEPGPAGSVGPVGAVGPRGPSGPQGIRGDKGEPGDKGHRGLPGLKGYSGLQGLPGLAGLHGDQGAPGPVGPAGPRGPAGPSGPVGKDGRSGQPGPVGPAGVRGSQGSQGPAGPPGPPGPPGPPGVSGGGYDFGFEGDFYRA
UniProt Q3U962, residues 27-1227: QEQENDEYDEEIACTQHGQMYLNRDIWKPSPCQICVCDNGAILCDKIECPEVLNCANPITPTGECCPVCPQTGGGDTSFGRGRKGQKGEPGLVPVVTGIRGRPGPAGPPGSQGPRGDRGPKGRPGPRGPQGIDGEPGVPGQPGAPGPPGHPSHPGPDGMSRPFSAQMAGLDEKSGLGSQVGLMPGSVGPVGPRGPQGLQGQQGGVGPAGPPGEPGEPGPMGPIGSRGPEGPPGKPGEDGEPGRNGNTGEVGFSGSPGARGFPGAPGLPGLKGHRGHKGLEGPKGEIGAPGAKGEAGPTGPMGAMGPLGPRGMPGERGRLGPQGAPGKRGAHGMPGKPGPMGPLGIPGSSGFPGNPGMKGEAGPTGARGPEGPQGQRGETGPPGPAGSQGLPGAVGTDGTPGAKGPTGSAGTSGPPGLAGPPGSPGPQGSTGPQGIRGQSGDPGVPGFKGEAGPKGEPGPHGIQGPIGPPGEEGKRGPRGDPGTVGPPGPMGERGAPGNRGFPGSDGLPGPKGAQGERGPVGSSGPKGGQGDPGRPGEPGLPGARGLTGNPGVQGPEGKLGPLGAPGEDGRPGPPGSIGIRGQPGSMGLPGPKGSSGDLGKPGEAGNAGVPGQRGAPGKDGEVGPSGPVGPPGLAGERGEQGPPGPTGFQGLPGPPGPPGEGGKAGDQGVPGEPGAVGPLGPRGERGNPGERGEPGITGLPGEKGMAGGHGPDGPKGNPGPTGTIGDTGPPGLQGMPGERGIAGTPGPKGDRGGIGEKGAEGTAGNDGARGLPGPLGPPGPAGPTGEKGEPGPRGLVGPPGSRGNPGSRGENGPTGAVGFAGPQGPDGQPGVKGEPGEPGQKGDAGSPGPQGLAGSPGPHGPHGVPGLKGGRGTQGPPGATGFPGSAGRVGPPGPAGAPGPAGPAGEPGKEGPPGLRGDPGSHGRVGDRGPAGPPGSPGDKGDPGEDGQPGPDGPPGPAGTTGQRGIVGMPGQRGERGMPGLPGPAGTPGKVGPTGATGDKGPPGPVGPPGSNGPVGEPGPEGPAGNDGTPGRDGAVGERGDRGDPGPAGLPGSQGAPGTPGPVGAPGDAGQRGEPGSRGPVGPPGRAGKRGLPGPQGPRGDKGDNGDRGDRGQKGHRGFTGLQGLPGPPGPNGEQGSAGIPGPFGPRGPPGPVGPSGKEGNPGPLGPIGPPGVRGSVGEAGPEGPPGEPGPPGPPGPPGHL
UniProt Q64739, residues 28-1736: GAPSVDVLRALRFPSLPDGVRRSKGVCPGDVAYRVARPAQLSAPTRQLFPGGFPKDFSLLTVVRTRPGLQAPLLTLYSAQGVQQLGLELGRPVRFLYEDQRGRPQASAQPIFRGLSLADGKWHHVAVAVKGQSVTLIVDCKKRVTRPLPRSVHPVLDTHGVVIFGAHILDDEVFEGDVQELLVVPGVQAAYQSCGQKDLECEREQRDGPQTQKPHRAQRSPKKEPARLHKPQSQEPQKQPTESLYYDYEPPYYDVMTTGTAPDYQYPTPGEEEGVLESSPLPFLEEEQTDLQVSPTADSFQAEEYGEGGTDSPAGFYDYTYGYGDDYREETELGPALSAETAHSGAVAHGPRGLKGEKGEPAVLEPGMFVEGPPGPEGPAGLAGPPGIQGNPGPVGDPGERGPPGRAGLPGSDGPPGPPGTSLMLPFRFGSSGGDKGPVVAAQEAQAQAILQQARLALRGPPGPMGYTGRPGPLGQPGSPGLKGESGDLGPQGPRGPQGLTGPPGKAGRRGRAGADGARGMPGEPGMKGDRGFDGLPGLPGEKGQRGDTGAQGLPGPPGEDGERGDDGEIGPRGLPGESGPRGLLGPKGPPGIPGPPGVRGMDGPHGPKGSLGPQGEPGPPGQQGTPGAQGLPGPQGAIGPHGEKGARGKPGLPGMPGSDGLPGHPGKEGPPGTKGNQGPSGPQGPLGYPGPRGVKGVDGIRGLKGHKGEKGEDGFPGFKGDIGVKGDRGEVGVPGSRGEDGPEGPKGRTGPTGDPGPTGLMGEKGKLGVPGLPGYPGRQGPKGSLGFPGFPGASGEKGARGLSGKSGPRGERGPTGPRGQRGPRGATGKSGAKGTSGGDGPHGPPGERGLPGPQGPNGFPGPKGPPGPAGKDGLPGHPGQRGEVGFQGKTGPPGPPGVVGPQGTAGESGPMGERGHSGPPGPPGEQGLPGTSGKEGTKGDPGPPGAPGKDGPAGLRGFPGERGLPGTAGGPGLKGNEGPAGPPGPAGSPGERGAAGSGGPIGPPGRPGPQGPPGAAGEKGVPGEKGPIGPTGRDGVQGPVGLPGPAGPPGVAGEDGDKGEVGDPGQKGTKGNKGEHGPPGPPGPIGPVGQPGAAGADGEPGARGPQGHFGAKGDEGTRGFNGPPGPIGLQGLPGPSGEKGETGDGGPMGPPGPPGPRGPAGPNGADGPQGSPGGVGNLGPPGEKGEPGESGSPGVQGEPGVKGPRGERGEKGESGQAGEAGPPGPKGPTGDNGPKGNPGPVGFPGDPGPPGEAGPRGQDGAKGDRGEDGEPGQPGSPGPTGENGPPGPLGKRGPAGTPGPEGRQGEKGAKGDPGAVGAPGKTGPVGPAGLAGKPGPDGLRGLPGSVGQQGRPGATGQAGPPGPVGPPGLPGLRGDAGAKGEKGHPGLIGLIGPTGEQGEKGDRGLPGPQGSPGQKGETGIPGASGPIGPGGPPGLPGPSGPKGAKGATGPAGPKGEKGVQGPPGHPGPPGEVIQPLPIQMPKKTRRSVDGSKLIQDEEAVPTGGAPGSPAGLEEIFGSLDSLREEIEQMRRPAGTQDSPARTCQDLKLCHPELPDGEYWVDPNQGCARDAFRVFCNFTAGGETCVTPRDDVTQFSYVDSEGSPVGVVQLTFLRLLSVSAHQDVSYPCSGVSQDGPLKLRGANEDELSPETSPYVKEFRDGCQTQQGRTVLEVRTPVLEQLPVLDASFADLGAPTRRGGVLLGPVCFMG

T1: SC65-Flag (Synaptonemal Complex 65, P3H4) (mouse) (UniProt Q8K2B0)
T1 sequence: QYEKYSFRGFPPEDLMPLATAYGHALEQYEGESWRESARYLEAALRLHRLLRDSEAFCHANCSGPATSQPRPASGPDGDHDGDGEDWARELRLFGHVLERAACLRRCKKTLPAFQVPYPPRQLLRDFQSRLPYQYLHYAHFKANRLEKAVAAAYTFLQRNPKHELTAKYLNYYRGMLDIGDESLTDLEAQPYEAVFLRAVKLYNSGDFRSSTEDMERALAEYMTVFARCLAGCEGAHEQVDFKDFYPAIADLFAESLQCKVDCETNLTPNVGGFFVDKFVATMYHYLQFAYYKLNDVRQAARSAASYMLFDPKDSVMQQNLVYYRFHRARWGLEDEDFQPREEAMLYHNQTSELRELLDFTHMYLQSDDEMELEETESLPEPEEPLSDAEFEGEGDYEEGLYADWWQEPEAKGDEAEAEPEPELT


Each molecule was assayed against T1, SC65-Flag (Synaptonemal Complex 65, P3H4) (mouse) (assay: affinity purification with mass spectrometry; 714 cells transiently transfected with SC65-Flag or empty vector, lysed 24 h later in 1 mM EDTA, 0.5% Triton X-100, PBS; anti-Flag antibody on Epoxy Dynabeads, 4 h at 4°C; eluted with 0.5N ammonium hydroxide; gel bands analysed by LC-MS/MS; fold change >1.5 over empty vector counted as enriched).

binding	Molecule
binds	collagen α1(I) chain (from UniProt P11087)
binds	collagen α1(V) chain (from UniProt O88207 37-1838)
binds	collagen α1(XI) chain (from UniProt Q61245)
binds	collagen α2(I) chain (from UniProt Q01149 86-1125)
binds	collagen α2(V) chain (from UniProt Q3U962 27-1227)
binds	collagen α2(XI) chain (from UniProt Q64739 28-1736)

Biological target: T1, SC65-Flag (Synaptonemal Complex 65, P3H4) (mouse)
Assay: as above
Remark: another data set of the same source

binding	Molecule
binds	lysyl-hydroxylase 1 (LH1), endogenous (enzyme, UniProt Q9R0E2 19-728) KDDAKLEDNLLVLTVATKETEGFRRFKRSAQFFNYKIQSLGLGEDWSVDGGPAAAGGGQKVRLLKKALEKHADKEDLVILFVDSYDVVFASGPRELLKKFQQAKSQVVFSAEEHIYPDRRLEAKYPTVPDGKRFLGSGGFIGYAPSLSKLVAEWEGQDSDSDQLFYTKIFLNPEKREQINISLDHRCRIFQNLDGALDEVVLKFEMGHVRARNLAYDTLPVVVHGNGPTKLQLNYLGNYIPRFWTFETGCTVCDEGLRSLKGIGDEALPTVLVGVFIEQPTPFLSLFFLRLLRLRYPQKQMRLFIHNQERHHKLQVEQFLAEHGSEYQSVKLVGPEVRMANADARNMGADLCRQDQTCTYYFSVDADVALTEPNSLRLLIEQNKNVIAPLMTRHGRLWSNFWGGLSADGYYARSEDYVDIVQGRRVGVWNVPYISNIYLIKGSALRAELQNVDLFHYSKLDSDMSFCANVRQQEVFMFLTNRHTFGHLLSLDNYQTTHLHNDLWEVFSNPEDWKEKYIHENYTKALAGKLVETPCPDVYWFPIFTEAACDELVEEMEHYGQWSLGDNKDNRIQGGYENVPTIDIHMNQITFEREWHKFLVEYIAPMTEKLYPGYYTRAQFDLAFVVRYKPDEQPSLMPHHDASTFTVNIALNRVGEDYEGGGCRFLRYNCSVRAPRKGWALLHPGRLTHYHEGLPTTKGTRYIAVSFVDP
